The list shows a part of the results.

For 42 sequences, binding signal results are on record in paper PMC7819943, “Rice protein-binding microarrays: a tool to detect cis-acting elements near promoter regions in rice”.

The target of this experiment is T1, OsSMF1 (Oryza sativa, UniProt Q6ZLB0 1-436).
T1 sequence: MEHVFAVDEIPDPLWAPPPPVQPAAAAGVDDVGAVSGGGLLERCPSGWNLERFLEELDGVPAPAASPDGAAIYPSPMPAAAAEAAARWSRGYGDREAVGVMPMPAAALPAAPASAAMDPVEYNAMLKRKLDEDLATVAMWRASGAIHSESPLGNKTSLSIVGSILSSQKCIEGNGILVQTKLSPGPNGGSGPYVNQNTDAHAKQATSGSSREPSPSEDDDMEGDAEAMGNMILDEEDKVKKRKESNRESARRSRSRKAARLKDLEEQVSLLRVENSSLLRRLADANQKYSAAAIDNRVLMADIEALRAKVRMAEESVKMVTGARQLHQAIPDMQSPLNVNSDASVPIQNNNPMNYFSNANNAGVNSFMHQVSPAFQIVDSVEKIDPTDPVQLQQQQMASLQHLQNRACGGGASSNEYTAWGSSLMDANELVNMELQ
Put plainly: protein-binding microarray (RPBM); PBS, 2% BSA, 51.3 ng/ul salmon testes DNA, 50 uM zinc acetate, 200 nM TF, 25 C, 1 h; high values mean tight binding. The note with it: protein: recombinant; tags: N-terminal polyhistidine and DsRed monomer fusion (pET32a); chain copies: 2; label: CyDye5-dUTP incorporated in the synthesized complementary strand; 3' TTTTT single-stranded linker to array surface; dsDNA, one strand shown. The procedure, abridged: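 Binding signal is defined as the fluorescence intensity of each feature in arbitrary units, read on an Axon 4000B scanner. Transcription factors with N-terminal polyhistidine and DsRed fusions came from E. coli BL21-CodonPlus and were purified on Ni–NTA. They were incubated at 200 nM for 1 h at 25 °C on a custom Agilent array that had been made double-stranded with Cy5-dUTP, with 50 µM zinc acetate present, and the array was washed.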
As for “AATTAGATGTGTCACTCGTCTTCACTATAAAACTTGCCGTCGGAGTCACCTAGTGCAG”, the binding signal was 5610 fluorescence intensity (a.u.).
The result for “CATTGCAGAGCGGCCTTTCACGTGGCCTTCTTTCTGCCCTCGGAGTCACCTAGTGCAG” reads 3710 fluorescence intensity (a.u.).
To “ATAAACCAACGAACGGAGCGGGTCCCATTTACCCAAAAGCCGGAGTCACCTAGTGCAG” belongs 15300 fluorescence intensity (a.u.); to “CGGTGCTCCCATGGTGGCGCAGCGCCACGCTTGTGGGTTGCGGAGTCACCTAGTGCAG”, 3840 fluorescence intensity (a.u.).
The result for “TCGAAAACTTTTCAGCCACGTGATGTTGGCAATCGCTGTTCGGAGTCACCTAGTGCAG” reads 7190 fluorescence intensity (a.u.).
Take “CTTCCATTCTTTCTAGTGCACTGTCTCAGTCAGGCATTATCGGAGTCACCTAGTGCAG”: the binding signal is 3370 fluorescence intensity (a.u.).
In the case of “GTTGACTGTGATCCGAGTATCTGACGTGTGTCCGTTGCATCGGAGTCACCTAGTGCAG”, the binding signal is 17300 fluorescence intensity (a.u.).
For “TCGAGCTTGGCTGGATGCTATCGTCAGTTGGTCTCCTTACCGGAGTCACCTAGTGCAG”, the binding signal is 3950 fluorescence intensity (a.u.).
Take “CCCGATATTGACCGCACGCCGCCACGACAAATCTGCTCGGCGGAGTCACCTAGTGCAG”: the binding signal is 4820 fluorescence intensity (a.u.).
Consider “AAGTTAAGATGCTAGATATCATTCGTCAGCAAGCTAGAAGCGGAGTCACCTAGTGCAG”, for which the binding signal is 4880 fluorescence intensity (a.u.).
To “CGGAACGGCGGTGACGCCAGTGATCCCCTCGTCCCGAATACGGAGTCACCTAGTGCAG” belongs 4180 fluorescence intensity (a.u.).
“TCGAAGCCCTCAAGACAGCCACGCACGCGGCCCGCGCCGCCGGAGTCACCTAGTGCAG”: the binding signal was 5660 fluorescence intensity (a.u.).
In the case of “ATATATGACGCCATTAACTTTTCAAGATACATTTGATCATCGGAGTCACCTAGTGCAG”, the binding signal was 3610 fluorescence intensity (a.u.).
“CCAACCCACCCGAAAGAAGCAGCCCACATCAACCTATTTTCGGAGTCACCTAGTGCAG”: the binding signal was 3440 fluorescence intensity (a.u.).
Take “TGCAAGAACAAGCTGGATTTTGGCAAAGAATTTGTATGCTCGGAGTCACCTAGTGCAG”: the binding signal is 13900 fluorescence intensity (a.u.).
Regarding “TACTTAACTACGTACGTAATCACGCCCAGTACCTTGTGGACGGAGTCACCTAGTGCAG”, the binding signal was 4140 fluorescence intensity (a.u.).
For the sequence “TGCGGGAACGACGCCACCGGGATGGCGTCGAAGCAGCTGTCGGAGTCACCTAGTGCAG”, the binding signal was 7720 fluorescence intensity (a.u.).
The result for “GATTTGGGCAGCTGAAGCTCTGCCGATTCCGGTTGGGAATCGGAGTCACCTAGTGCAG” reads 5150 fluorescence intensity (a.u.); that for “CACAAGGGGAAGGGGAGGGCCTCCGCACTGCACATCTCATCGGAGTCACCTAGTGCAG”, 3150 fluorescence intensity (a.u.).
Take “TGTGTACCAGCTGTGTATGACGCCATCGAATCAGTCTTCCCGGAGTCACCTAGTGCAG”: the binding signal was 3280 fluorescence intensity (a.u.).
On to “GGCGGTATGGTGAACCCTGCGAGATCCTTATCCTGTCACTCGGAGTCACCTAGTGCAG”, for which the binding signal was 23800 fluorescence intensity (a.u.).
To “ACCAAATGACATGACTCACTTAGATCCTAATAGGACATCCCGGAGTCACCTAGTGCAG” belongs 4400 fluorescence intensity (a.u.); to “GATCCGTCGCGTCGCCGTCGTCGCCACGCGTGTCACGACGCGGAGTCACCTAGTGCAG”, 6470 fluorescence intensity (a.u.); to “CGCGACAAGCACAGGCACACGTGACTGAATTGGCATCCATCGGAGTCACCTAGTGCAG”, 4050 fluorescence intensity (a.u.).
To “TGTTTATGTTTATCTGATATGTACACGTTCTTATTTACATCGGAGTCACCTAGTGCAG” belongs 3880 fluorescence intensity (a.u.); to “ACTAGCACACCGGTGCTGTCAGCTGATGGTCGATCGAGATCGGAGTCACCTAGTGCAG”, 3780 fluorescence intensity (a.u.).
The result for “ACCGCCTTTTCGCCTGTCTGTTTTATAACTCACCATTATACGGAGTCACCTAGTGCAG” reads 23200 fluorescence intensity (a.u.).
Take “AATTGACCCTTTCACTACCACATCATCAAAACCATCCATCCGGAGTCACCTAGTGCAG”: the binding signal was 4510 fluorescence intensity (a.u.).
For “AGGGAGTAGTTAAGTTGTTAAGCTAGTAAGAAAATACAGGCGGAGTCACCTAGTGCAG”, the binding signal is 3610 fluorescence intensity (a.u.).
To “CAGAACGTGTCACTGACGTGCGGGGCCAACCAAGCCCATGCGGAGTCACCTAGTGCAG” belongs 38300 fluorescence intensity (a.u.).
On to “GAGCTGAGCGTCGCGTGCACCGAATCCCCGCACTGAACGCCGGAGTCACCTAGTGCAG”, for which the binding signal is 27600 fluorescence intensity (a.u.).
Take “TCTTTGACAGAAGTACTTGCTCCTGTCATTTTCAGTGCTACGGAGTCACCTAGTGCAG”: the binding signal is 3450 fluorescence intensity (a.u.).
Take “CAGCTACAGGACGGCAGTACCCAGTACACGCACGCGTACCCGGAGTCACCTAGTGCAG”: the binding signal was 3640 fluorescence intensity (a.u.).
Regarding “CATATACACAGTTACACACATCATCTGGGATGCAACGGTACGGAGTCACCTAGTGCAG”, the binding signal is 3230 fluorescence intensity (a.u.).
With “CAATTATAATCACGTCAGGTATAGAGCGAGCGGTAGCAGACGGAGTCACCTAGTGCAG”, the binding signal is 16200 fluorescence intensity (a.u.).
As to “CTCGTCGTCATCGTCCTCTTCTTCGTCCTCATCGTCGTCGCGGAGTCACCTAGTGCAG”, the binding signal is 4590 fluorescence intensity (a.u.).
Regarding “GCTCACACAATGATGACGCCGAGTGCTGACTAGGGCTCCCCGGAGTCACCTAGTGCAG”, the binding signal was 9010 fluorescence intensity (a.u.).
For the sequence “CCTGATATTCAAAATGATAGGATGAATCAGCGTATAATTACGGAGTCACCTAGTGCAG”, the binding signal was 3560 fluorescence intensity (a.u.).
The result for “ATCTGTAGTTCTCTACTTAATAGAGTTGATCACTTAGGTTCGGAGTCACCTAGTGCAG” reads 3440 fluorescence intensity (a.u.); that for “GTAAGCCACATGTCAACAAGGCACTGGGTGGCGTGCACCACGGAGTCACCTAGTGCAG”, 3180 fluorescence intensity (a.u.); that for “CACTTGATGTCTTTATTCCCTTTCAAACGTGTCAAAAGTCCGGAGTCACCTAGTGCAG”, 4240 fluorescence intensity (a.u.).
With “ATGCTATACGTCACATGAAGCCTCACGCCATCATGTACTGCGGAGTCACCTAGTGCAG”, the binding signal was 4560 fluorescence intensity (a.u.).
